± gives the standard deviation of the averaged measurements.
Test system: HepaRG
Assay: LDH release cytotoxicity, % of total lysis control; higher = more cytotoxic
Conditions: 48 h
Summary of the method: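 Eight-point half-log series of test chemicals, the highest at 100 µM, were given in duplicate for 48 h to single-lot HepaRG cells on collagen I-coated 96-well plates in serum-free induction medium with 0.5% DMSO. A Tecan Safire read resorufin fluorescence from CytoTox-ONE as a measure of LDH in 50 µL spent medium, with 0.1% Triton X in total lysis wells. Percent cytotoxicity was normalized to on-plate vehicle and total lysis controls and averaged over the duplicates.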

O=C(c1ccccc1)c1ccccc1 [Benzophenone]
LDH release cytotoxicity (0.03162 µM): -0.384 ± 0.13% | LDH release cytotoxicity (0.1 µM): -1.41 ± 0.47% | LDH release cytotoxicity (0.3162278 µM): -1.26 ± 0.2% | LDH release cytotoxicity (1 µM): -1.32 ± 0.14% | LDH release cytotoxicity (3.16228 µM): -0.85 ± 0.17% | LDH release cytotoxicity (10 µM): -0.923 ± 0.32% | LDH release cytotoxicity (31.6228 µM): -1.28 ± 0.25% | LDH release cytotoxicity (100 µM): -0.16 ± 0.42%

Reference: the supplement of paper PMC7840683
